According to patent publication US5750531A, “Pyrimidine derivatives and processes for the preparation thereof” (Yuhan Corporation, priority 1994, dated 1998):

test system: proton pump(H^+ /K^+ ATPase); assay: Inhibition of proton pump(H^+ /K^+ ATPase) activity; assay type: biochemical; details: IC50 omeprazole / IC50 test compound
Description: Test 1: Inhibition of proton pump(H^+ /K^+ ATPase) activity
A proton pump enzyme source was prepared by the same method as in Experiment 1-1 of WO 94/14795. Further, the inhibitory effect of proton pump activity was measured by the same method as in Experiment 1-2 of WO 94/14795.
Namely, the proton pump activity stimulated by Mg^++ was used as a negative comparative group, and the activity stimulated by Mg^++ and K^+ was used as a positive comparative group. The comparative compound was omeprazole.
Test tubes were divided into 4 groups: Group 1 as negative comparative group(n=3), Group 2 as positive comparative group(n=3), Group 3(n=5×2) to be administered with the compound of the present invention and Group 4(n=5×2) to be administered with the comparative compound.
The inhibitory effects of Groups 3 and 4 on proton pump activity were measured by employing the compound prepared in Example and omeperazole, respectively, each of which was dissolved in dimethylsulfoxide at 5 different concentrations.
To each of Groups 1, 2, 3 and 4 were added 100 μl of magnesium chloride(40 mM) dissolved in 40 mM Tris-HCl buffer(pH 6.0) and 100μ of the enzyme source. Then, 50μ of potassium chloride(50 mM) and 50 μl of ammonium chloride(6 mM) dissolved in 40 mM Tris-HCl buffer(pH 6.0) were added to all groups except for Group 1.
10 μl of dimethylsulfoxide was added to each of Groups 1 and 2; and to Group 3 was added 10 μl of the solution in which the compound prepared in Example was dissolved in dimethylsulfoxide at 5 different concentrations(n=5×2). To Group 4, 10 μl of the solution prepared by dissolving omeprazole in dimethylsulfoxide at 5 different concentrations(37.6, 21.4, 12.2, 7.0 and 4.0 μM) was added(n=5×2). 40 mM Tris-HCl buffer(pH=6.0) was added thereto so as to make the total volume 400 μl.
Thereafter, the test tubes of each Group were placed at 37° C. for 30 minutes for the preincubation. 100 μl of ATP solution (6.6 mM) was added until the reaction volume became 500 μl. After the reaction was carried out at 37° C. for 30 minutes, 25% cold trichloroacetic acid was added to terminate the enzyme reaction. The released inorganic phosphate was measured by an automatic analyzer(Express 550, Corning).
The difference between Group 1 and Group 2 represents the proton pump activity activated by K^+ only. The inhibition percentages of Groups 3 and 4 were calculated from Litchfield-wilcoxon equation[see, e.g., J. pharmacol. Exp. Ther., 96, 99(1949)]. The concentrations of the test compounds which inhibit 50% of the proton pump activity are represented as IC50 in Table 1.

Point of comparison: `Cc1nc(Nc2ccccc2)nc(N2CCc3ccccc3C2C)c1C.Cl` (centres unmarked) [Example 21, 5,6-dimethyl-2-(phenylamino)-4-(1-methyl-1,2,3,4-tetrahydroisoquinolin-2-yl)pyrimidine hydrochloride], Effect ratio 7.33. Against it:
- Cc1cc(F)ccc1Nc1nccc(N2CCc3ccccc3C2C)n1.Cl (centres unmarked) [Example 1, 2-(2-methyl-4-fluorophenylamino)-4-(1-methyl-1,2,3,4-tetrahydroisoquinolin-2-yl)pyrimidine hydrochloride] — lower, 1.08
- Cc1nc(Nc2ccc(F)cc2)nc(N2CCc3ccccc3C2)c1C.Cl [Example 42, 5,6-dimethyl-2-(4-fluorophenylamino)-4-(1,2,3,4-tetrahydroisoquinolin-2-yl)pyrimidine hydrochloride] — lower, 4.95
- Cc1cc(F)ccc1Nc1nc(N2CCc3ccccc3C2)nc(C)c1C.Cl [Example 74, 5,6-dimethyl-4-(2-methyl-4-fluorophenylamino)-2-(1,2,3,4-tetrahydroisoquinolin-2-yl)pyrimidine hydrochloride] — higher, 22.00
- Cc1cc(N2CCc3ccccc3C2C)nc(Nc2ccc(F)cc2)n1.Cl (centres unmarked) [Example 3, 6-methyl-4-(1-methyl-1,2,3,4-tetrahydroisoquinolin-2-yl)-2-(4-fluorophenylamino)pyrimidine hydrochloride] — lower, 2.11
- Cc1nc(N(C)c2ccccc2)nc(N2CCc3ccccc3[C@@H]2C)c1C.Cl [Example 20, (S)-5,6-dimethyl-2-(N-methylphenylamino)-4-(1-methyl-1,2,3,4-tetrahydroisoquinolin-2-yl)pyrimidine hydrochloride] — lower, 2.59
- Cc1nc(N2CCc3ccccc3C2C)nc(Nc2ccc(F)cc2)c1C.Cl (centres unmarked) [Example 68, 5,6-dimethyl-4-(4-fluorophenylamino)-2-(1-methyl-1,2,3,4-tetrahydroisoquinolin-2-yl)pyrimidine hydrochloride] — lower, 1.86
- CCc1nc(Nc2ccc(F)cc2)nc(N2CCc3ccccc3C2)c1C.Cl [Example 45, 5-methyl-6-ethyl-2-(4-fluorophenylamino)-4-(1,2,3,4-tetrahydroisoquinolin-2-yl)pyrimidine hydrochloride] — lower, 4.12
- Cc1nc(N(C)c2ccccc2)nc(N2CCc3ccccc3C2)c1C.Cl [Example 43, 5,6-dimethyl-2-(N-methylphenylamino)-4-(1,2,3,4-tetrahydroisoquinolin-2-yl)pyrimidine hydrochloride] — higher, 14.44
- Cc1cc(F)ccc1Nc1nc(N2CCc3ccccc3C2)nc2c1CCCC2.Cl [Example 83, 4-(2-methyl-4-fluorophenylamino)-2-(1,2,3,4-tetrahydroisoquinolin-2-yl)-5,6,7,8-tetrahydroquinazoline hydrochloride] — lower, 5.34

In the case of `CCc1cc(Nc2ccc(F)cc2C)nc(N2CCc3ccccc3C2C)n1.Cl` (centres unmarked) [Example 61, 6-Ethyl-4-(2-methyl-4-fluorophenylamino)-2-(1-methyl-1,2,3,4-tetrahydroisoquinolin-2-yl)pyrimidine hydrochloride], the Effect ratio is reported as ~ 0.60.
For `CCc1cc(N2CCc3ccccc3C2)nc(N(C)c2ccccc2)n1.Cl` [Example 39, 6-ethyl-2-(N-methylphenylamino)-4-(1,2,3,4-tetrahydroisoquinolin-2-yl)pyrimidine hydrochloride], the Effect ratio was < 0.95.
For `CCc1cc(Nc2ccc(F)cc2)nc(N2CCc3ccccc3C2)n1.Cl` [Example 63, 6-ethyl-4-(4-fluorophenylamino)-2-(1,2,3,4-tetrahydroisoquinolin-2-yl)pyrimidine hydrochloride], the Effect ratio was ~ 1.18.
For `Cl.Fc1ccc(Nc2nc3c(c(N4CCc5ccccc5C4)n2)CCCC3)cc1` [Example 49, 2-(4-fluorophenylamino)-4-(1,2,3,4-tetrahydroisoquinolin-2-yl)-5,6,7,8-tetrahydroquinazoline hydrochloride], the Effect ratio was ~ 1.13.
